# PubChem BioAssay AID1224830 | NIAID | 2016
# Test: 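Genes whose knock-down alters the TNF-alpha reporter response to LPS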 (primary screen)
# Cells: human THP-1 monocytic leukaemia cells, TNF dual-luciferase reporter clone, PMA-differentiated to macrophage-like cells
# Reagents: siRNA pool against human genes, 50 nM
# Timing: LPS for 4 h, given about 3 days after siRNA transfection
# Treatment: bacterial LPS (TLR4 ligand), 10 ng/ml
# Measured: 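TNF firefly reporter luminescence divided by renilla, normalised to the plate median, then turned into a robust z-score for each replicate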
# Reading the numbers: TNF reporter robust z-score: higher = stronger TNF reporter response to LPS
# Hit rule: 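Each well counts as active if its z-score is over 2.8 or under -1.5; controls are left without a call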
# The whole screen tested about 18,000 reagents; shown is a part drawn at random. About 2,900 of all reagents (16%) count as active. 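Calls are made per well; low scores hint the gene aids the LPS response, high scores that it dampens it.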 A number with no mark means an inactive call. Repeated entries: four replicate wells of each siRNA pool.
gene knocked down,TNF reporter robust z-score
RIPOR1,-0.46
RIPOR1,0.03
RIPOR1,-0.56
RIPOR1,0.24
C6orf163,-0.17
C6orf163,-0.15
C6orf163,0.83
C6orf163,1.46
IFT74,-0.77
IFT74,-0.56
IFT74,-0.25
IFT74,1.2
SCAF1,-0.64
SCAF1,2.4
SCAF1,-0.01
SCAF1,-0.05
IFT80,0.16
IFT80,1.49
IFT80,1.08
IFT80,0.61
B3GNT3,-0.83
B3GNT3,-0.53
B3GNT3,-0.48
B3GNT3,-0.22
MCOLN2,-0.49
MCOLN2,-0.84
MCOLN2,-0.71
MCOLN2,-0.5
CDH23,0.71
CDH23,-0.32
CDH23,1.57
CDH23,1.93
SPANXN5,3.45 (active)
SPANXN5,3.92 (active)
SPANXN5,4.09 (active)
SPANXN5,5.37 (active)
FHL1,2.16
FHL1,-0.63
FHL1,0.6
FHL1,0.26
DPP4,-0.66
DPP4,-0.2
DPP4,-0.16
DPP4,-0.35
RPS9,-0.31
RPS9,-0.16
RPS9,-0.44
RPS9,0.41
RAB43,2.95 (active)
RAB43,1.37
RAB43,0.03
RAB43,0.34
USP34,-1.03
USP34,0.73
USP34,0.63
USP34,0.48
IAPP,2.86 (active)
IAPP,-0.41
IAPP,-0.4
IAPP,-1.24
SLC46A2,-0.57
SLC46A2,0.18
SLC46A2,-0.46
SLC46A2,0.82

A run of entries taken from the entries so far, as a working copy:
gene knocked down,TNF reporter robust z-score
IFT80,1.49
IFT80,1.08
IFT80,0.61
B3GNT3,-0.83
B3GNT3,-0.53
B3GNT3,-0.48
B3GNT3,-0.22

Further entries follow.
gene knocked down,TNF reporter robust z-score
POP4,1.74
POP4,2.59
POP4,3.4 (active)
POP4,4.9 (active)
HOOK2,-1.31
HOOK2,-0.98
HOOK2,-1.26
HOOK2,0.4
CEP68,-0.96
CEP68,-0.78
CEP68,-0.88
CEP68,-0.74
CREG2,0.09
CREG2,-1.14
CREG2,-1.31
CREG2,0.02
TRIP11,0.18
TRIP11,1.41
TRIP11,2.06
TRIP11,1.86
KLF16,-0.54
KLF16,-0.31
KLF16,-0.22
KLF16,-0.68
TYK2,0.48
TYK2,1.75
TYK2,-0.08
TYK2,0.95
ANKRD55,-1.14
ANKRD55,-0.79
ANKRD55,-1.06
ANKRD55,-0.7
PLA2G10,-0.05
PLA2G10,-0.61
PLA2G10,0.21
PLA2G10,0.48
GSTT2B,0.3
GSTT2B,-0.07
GSTT2B,-0.11
GSTT2B,0.29
POMC,0.82
POMC,0.42
POMC,0.83
POMC,2.18
C3orf70,-1.12
C3orf70,0.09
C3orf70,0.59
C3orf70,1.05
CHEK1,1.82
CHEK1,-0.35
CHEK1,1.04
CHEK1,1.23
MCM9,0.62
MCM9,1.22
MCM9,1.08
MCM9,3.51 (active)
PI4KAP2,1.25
PI4KAP2,1.31
PI4KAP2,-0.18
PI4KAP2,0.6
AXIN1,0.07
AXIN1,0.87
AXIN1,-0.33
AXIN1,0.16
FITM1,-0.41
FITM1,0.15
FITM1,0.03
FITM1,0.07
SMG6,1.17
SMG6,-0.77
SMG6,-0.76
SMG6,-0.71
ZCCHC10,-0.17
ZCCHC10,0.13
ZCCHC10,-0.92
ZCCHC10,-0.07
